# Laboratory results: PubChem BioAssay AID1159578 (Peter MacCallum Cancer Centre, 2015)
# Test: 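Knock-downs that alter how fast lymphatic endothelial cells migrate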 (primary screen)
# System: human lymphatic endothelial cells
# Knock-down reagent: siRNA pool against human genes, 40 nM
# Timing: 48 h after transfection
# Measurement: 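High-content imaging of dye-stained cells in a scratch assay measures filled wound area and nuclei per well; duplicate means given as ratio to mock and robust z-score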
# Reading the numbers: migration robust z-score: higher = faster migration into the scratch; migration relative to mock: higher = more scratch area covered than mock; nuclei per well: higher = more cells in the well
# Rule for the call: 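Migration changed when robust z exceeds 2 or falls below -2 and mean nuclei number is at least 3300; otherwise not called changed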
# Calls: active = migration changed; inactive = no migration change, or too few cells
# The whole screen tested about 18,000 reagents; this is an unselected part. Over the whole deposit, about 1,030 (5.7%) are marked active. 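Inactive calls also include pools with fewer than 3300 nuclei, whose migration was not assessed.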 Raw values are not corrected between plates. Unmarked entries are inactive.
Target gene,migration robust z-score,migration class with cell-count check,migration relative to mock,"nuclei per well, duplicate mean"
HSPA13,-0.98,migration z between -2 and 2; enough cells,0.62,5473
GLRX,-0.52,migration z between -2 and 2; enough cells,0.7,4728
RARS2,0.39,migration z between -2 and 2; enough cells,0.88,4168
ARFGAP2,-1.27,migration z between -2 and 2; enough cells,0.55,5264
ZNF682,-0.18,migration z between -2 and 2; enough cells,0.83,6123
MRGPRX1,0.13,migration z between -2 and 2; enough cells,0.83,7334
CAMKK1,-2.98 (active),migration z below -2; enough cells,0.23,3883
TRIP6,-0.12,migration z between -2 and 2; enough cells,0.86,4401
ERMAP,0.79,migration z between -2 and 2; enough cells,1.09,5746
ZAP70,-0.76,migration z between -2 and 2; enough cells,0.66,3604
WNT9B,0.4,migration z between -2 and 2; enough cells,0.99,6373
ZNF560,2.76 (active),migration z above 2; enough cells,1.6,8246
RAET1E,-0.38,migration z between -2 and 2; enough cells,0.78,6169
DSG3,0.6,migration z between -2 and 2; enough cells,1.04,6207
PADI6,-1.85,migration z between -2 and 2; enough cells,0.45,4184
TDRP,0.68,migration z between -2 and 2; enough cells,1.06,6150
ITPKA,-2.51 (active),migration z below -2; enough cells,0.32,4050
TIRAP,-0.92,migration z between -2 and 2; enough cells,0.64,5580
FOXD3,-0.31,migration z between -2 and 2; enough cells,0.74,5765
CYTL1,1.64,migration z between -2 and 2; enough cells,1.31,7188
LYLDT1,-2.02 (active),migration z below -2; enough cells,0.36,6002
TMEM263,1.06,migration z between -2 and 2; enough cells,1.16,5104
FUT4,-0.05,migration z between -2 and 2; enough cells,0.8,4921
GABRA5,-1.61,migration z between -2 and 2; enough cells,0.5,4272
HSPD1,-0.1,migration z between -2 and 2; enough cells,0.78,5896
PHF13,0.31,migration z between -2 and 2; enough cells,0.86,4782
SMC1A,-0.57,migration z between -2 and 2; enough cells,0.7,5548
KBTBD6,0.32,migration z between -2 and 2; enough cells,0.98,6320

Part of the list above in another layout:
Target gene	migration robust z-score	migration class with cell-count check	migration relative to mock	nuclei per well, duplicate mean
ARFGAP2	-1.27	migration z between -2 and 2; enough cells	0.55	5264
ZNF682	-0.18	migration z between -2 and 2; enough cells	0.83	6123
MRGPRX1	0.13	migration z between -2 and 2; enough cells	0.83	7334
CAMKK1	-2.98 (active)	migration z below -2; enough cells	0.23	3883
TRIP6	-0.12	migration z between -2 and 2; enough cells	0.86	4401

The results go on.
Target gene,migration robust z-score,migration class with cell-count check,migration relative to mock,"nuclei per well, duplicate mean"
PLEKHN1,1.25,migration z between -2 and 2; enough cells,1.21,6176
CHD5,0.54,migration z between -2 and 2; enough cells,0.91,5164
ACAD10,-0.64,migration z between -2 and 2; enough cells,0.68,4764
TBC1D5,0.02,migration z between -2 and 2; enough cells,0.89,5071
SUV39H1,-0.64,migration z between -2 and 2; enough cells,0.68,5789
HBG2,-2.18 (active),migration z below -2; enough cells,0.32,3771
ZMYM5,1.25,migration z between -2 and 2; enough cells,1.21,6046
PLD1,0.34,migration z between -2 and 2; enough cells,0.87,5732
PSTK,0.46,migration z between -2 and 2; enough cells,0.9,4998
TRIM9,0.03,migration z between -2 and 2; enough cells,0.89,6206
ADAM32,0.08,migration z between -2 and 2; enough cells,0.82,5712
WRAP53,-0.56,migration z between -2 and 2; enough cells,0.74,6224
DCTN6,-2.31 (active),migration z below -2; enough cells,0.29,5334
APLP1,0.64,migration z between -2 and 2; enough cells,1.05,5966
CCM2L,-1.04,migration z between -2 and 2; enough cells,0.61,6333
PRAMEF10,1.34,migration z between -2 and 2; enough cells,1.23,6559
LZTS2,1.14,under 3300 nuclei; migration not judged,1.19,3262
GNE,1.48,migration z between -2 and 2; enough cells,1.09,7130
GPI,-5.34 (active),migration z below -2; enough cells,-0.22,4351
TNFSF15,1.73,migration z between -2 and 2; enough cells,1.34,5302
PSMA4,0.44,migration z between -2 and 2; enough cells,0.89,4698
ZNF813,1.52,migration z between -2 and 2; enough cells,1.27,5662
ISCA1,-0.79,migration z between -2 and 2; enough cells,0.68,4814
DRC4,0.2,migration z between -2 and 2; enough cells,0.94,6386
DDX27,-2.08,under 3300 nuclei; migration not judged,0.4,3103
CRYGC,1,migration z between -2 and 2; enough cells,1.15,6123
ATP10D,-1.48,migration z between -2 and 2; enough cells,0.52,6294
NFKB2,0.11,migration z between -2 and 2; enough cells,0.82,5455
KRTAP23-1,0.04,migration z between -2 and 2; enough cells,0.9,5184
